Source: patent EP4843985A1, “TRIAZOLOPYRIMIDINE DERIVATIVE, PREPARATION METHOD THEREFOR AND USE THEREOF” (dated 2026)

Chains of the proteins cited; added tags and fusions are not shown. Residues count along the entry.
UniProt Q14191, 517-1238 limits assumed: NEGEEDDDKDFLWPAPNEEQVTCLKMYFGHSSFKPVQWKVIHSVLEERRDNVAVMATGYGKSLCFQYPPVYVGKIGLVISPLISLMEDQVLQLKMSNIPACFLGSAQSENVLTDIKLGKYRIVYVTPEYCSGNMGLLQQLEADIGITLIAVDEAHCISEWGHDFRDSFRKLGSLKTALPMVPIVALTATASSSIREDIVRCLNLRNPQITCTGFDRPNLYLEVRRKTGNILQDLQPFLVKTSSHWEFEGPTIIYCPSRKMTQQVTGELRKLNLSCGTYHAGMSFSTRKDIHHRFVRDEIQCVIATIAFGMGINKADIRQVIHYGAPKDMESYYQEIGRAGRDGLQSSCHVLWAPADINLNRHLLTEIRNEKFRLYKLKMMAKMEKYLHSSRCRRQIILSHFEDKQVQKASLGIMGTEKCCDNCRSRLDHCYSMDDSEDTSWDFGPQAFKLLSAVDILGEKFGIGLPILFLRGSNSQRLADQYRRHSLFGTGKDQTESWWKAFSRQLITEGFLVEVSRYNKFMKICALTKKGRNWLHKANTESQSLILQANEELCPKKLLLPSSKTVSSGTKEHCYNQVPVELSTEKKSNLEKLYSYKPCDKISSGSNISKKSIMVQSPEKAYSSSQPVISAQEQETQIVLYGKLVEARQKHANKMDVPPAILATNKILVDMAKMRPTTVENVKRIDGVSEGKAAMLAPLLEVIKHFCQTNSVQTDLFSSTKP

Legend:
[1] = molecular target: WRN protein (AA N517-P1238) (Homo sapiens, UniProt Q14191); test: In vitro WRN enzymatic activity assay (ADP-Glo ATPase assay); conditions: read-out: ADP-Glo; 10 nM WRN enzyme, 3 hours pre-incubation at 25°C, ssDNA substrate
SW48 (CRC, MSI) = test: Cell proliferation inhibition assay (CellTiter-Glo), SW48; conditions: read-out: SW48 (CRC, MSI); 120 hours, CellTiter-Glo
SW620 (CRC, MSS) = test: Cell proliferation inhibition assay (CellTiter-Glo), SW620; conditions: read-out: SW620 (CRC, MSS), 120 hours
[2] = tested on: human colorectal cancer SW48 cell subcutaneous xenograft tumor; test: In vivo pharmacodynamic study in the SW48 xenograft tumor model; conditions: for TGI (%) Day21: N=6
Experimental: To evaluate the in vivo efficacy of the compounds in a human colorectal cancer SW48 cell subcutaneous xenograft tumor mouse model.
• Species: Mouse • Strain: NU/NU mouse • Age and body weight: 6-8 weeks of age, weighing 20-24 g • Sex: Female • Quantity: 110 (including remaining mice from grouping) • Supplier: Beijing Vital River Laboratory Animal Technology Co., Ltd. • Animal certificate: 110011241105714757
Human colon cancer SW48 cells (supplier: ECACC; catalog No.: 89012702) were cultured in vitro as a monolayer. The culture conditions were as follows: L-15 medium (supplier: Gibco; catalog No.: 11415-064) supplemented with 2 mM glutamine (supplier: Gibco; catalog No.: 25030-081), 10% fetal bovine serum (supplier: Excell; catalog No.: FSP500), and 1% antibiotics (supplier: Gibco; catalog No.: 15240-062) in a cell culture incubator at 37°C with 5% CO2. Routine passaging was performed by digestion twice a week. When the cell confluence reached 80% to 90% and the cell number met the requirement, the cells were harvested, counted, and inoculated.
A 0.1 mL cell suspension containing 3.0*10^6 SW48 cells (the cells were suspended in medium L15:Matrigel =1:1) was subcutaneously inoculated into the right dorsal flank of each mouse. On Day 7 after inoculation, animals with uniform and appropriate tumor sizes were selected for enrollment, with the mean tumor volume reaching 117 mm^3 (range: 89 mm^3 - 161 mm^3). The animals were assigned to groups according to tumor volume using a randomized block design, and dosing was initiated.
The health status and mortality of the animals were monitored daily. Routine inspections included observing the effects of tumor growth and drug treatment on the animals' daily behavioral performance, such as behavioral activity, food and water intake (visual inspection only), body weight changes (body weight was measured three times per week), appearance signs, or other abnormal conditions. Based on the number of animals in each group, the number of animal deaths and side effects within the group were recorded.
Tumor diameters were measured three times per week using a vernier caliper. The formula for calculating tumor volume was: V = 0.5a × b^2, wherein a and b represent the long and short diameters of the tumor, respectively.
The anti-tumor efficacy of the compounds was evaluated by the tumor growth inhibition rate TGI (%). The TGI (%) was calculated as: TGI (%) = [1 - (mean tumor volume of a treatment group at the end of administration - mean tumor volume of the treatment group at the start of administration) / (mean tumor volume of the vehicle control group at the end of treatment - mean tumor volume of the vehicle control group at the start of treatment)] × 100%.

[3] = Plasma protein binding rate (equilibrium dialysis), rat; conditions: 5 µM, 6 hours dialysis
Experimental: (§1) The purpose of this test was to evaluate the protein binding rate of the test drug in plasma of human, monkey, dog, rat and mouse using the equilibrium dialysis method.
(§2) Plasma (EDTA-K2 anticoagulated) was stored in a -80°C freezer. Stop solution, acetonitrile (containing 100 nM alprazolam, 200 nM caffeine, and 100 nM tolbutamide as internal standards).
(§3) The test article and the control compound ketoconazole were prepared as high-concentration DMSO stock solutions and diluted to 1 mM working solution, with a final test concentration of 5 µM.
(§4) NaH2PO4 (12.0 g) and NaCl (8.77 g) were weighed and dissolved in 1 L of water to prepare an alkaline solution. Na2HPO4 (14.2 g) and NaCl (8.77 g) were weighed and dissolved in 1 L of water to prepare an acidic solution. The alkaline solution and the acidic solution were titrated to pH 7.4.
(§5) The temperatures of the water bath and incubator were pre-adjusted to 37°C. The plasma was removed from -80°C, rapidly thawed in a 37°C water bath, and centrifuged at 2000 g for 5 minutes at room temperature. The clot was removed, and the supernatant was transferred to a new centrifuge tube. The pH of the plasma was tested and recorded. (Note: a. Only plasma with a pH range of 7.2-7.8 was used. b. Only plasma that had been thawed no more than twice after receipt was used.)
(§6) The equilibrium dialysis membrane was soaked in pure water for 60 minutes, then in 20% ethanol for 20 minutes, and finally in dialysis buffer for 20 minutes. The soaked dialysis membrane was then spread flat on a clean HTDialysis clamping device, and the dialysis device was assembled according to the product manual.
(§7) 3 µL of the working solution of the test drug and the control drug was taken and added to 597 µL of pre-incubated plasma, and mixed thoroughly. The final organic solvent content in the incubation system was 0.5%. […]
(§8) All data calculations were performed using Microsoft Excel software. The concentrations of the drug in free samples and plasma samples were determined. […]

[4] = Plasma protein binding rate (equilibrium dialysis), mouse; conditions: 5 µM, 6 hours dialysis
Experimental: as §1, §2, §3, §4, §5, §6, §7, §8

| IC50 [1] | IC50 (SW48 (CRC, MSI)) | IC50 (SW620 (CRC, MSS)) | Bound percentage [3] | Free percentage [3] | Recovery rate [3] | Bound percentage [4] | Free percentage [4] | Recovery rate [4] | Compound | TGI (%) Day21 ([2]; 0.3 mg/kg) | anti-tumor effects (in words) ([2]; 1 mg/kg) | TGI (%) Day21 ([2]; 1 mg/kg) | anti-tumor effects (in words) ([2]; 3 mg/kg) | TGI (%) Day21 ([2]; 3 mg/kg) | anti-tumor effects (in words) ([2]; 10 mg/kg) | TGI (%) Day21 ([2]; 10 mg/kg) |
| --- | --- | --- | --- | --- | --- | --- | --- | --- | --- | --- | --- | --- | --- | --- | --- | --- |
| 2.15 nM | 4.47 nM | > 10000 nM | – | – | – | – | – | – | [2H]C1([2H])CCC(c2nc3n4c(c(N5CCN(C(=O)c6ncnc(C)c6O)[C@H]6CC[C@@H]65)c(=O)n3n2)[C@H](C)C[C@@H]4C(=O)Nc2ccc(C(F)(F)F)cc2Cl)=CCO1 | 59.30% | significant anti-tumor effects | 101.86% | significant anti-tumor effects | 103.09% | – | – |
| 2.66 nM | 7.29 nM | > 10000 nM | 87.87 | 12.13 | 93.6% | 91.64 | 8.36 | 95.4% | [2H]C1([2H])CCC(c2nc3n4c(c(N5CCN(C(=O)c6ncnc(C)c6O)[C@H]6CC[C@@H]65)c(=O)n3n2)[C@H](C)C[C@@H]4C(=O)Nc2scc(C(F)(F)F)c2C)=CCO1 | – | – | – | significant anti-tumor effects | 101.70% | significant anti-tumor effects | 102.37% |

The structures given here were assigned with low confidence; some may be wrong.
